Screen size: about 53,000 sequences; about 3,700 (7%) were called active.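 How the source made its calls: active means gene knockdowns whose robust z-score for IL-1 alpha signal is at least 2 or at most -2, so actives lie on both sides; inactive means the rest.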 Some of the results follow.
Assay: Components of the Cytosolic LPS Sensing Pathway: Gene Identification via Genome-wide siRNA Screen;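 further: robust z of the log signal after scaling to non-targeting control siRNA wells of the plate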
Conditions: RAW264.7 macrophages, IL-1a HTRF, actives lie on both sides, screened at 100 nM (by protocol), cells primed 5 h with Pam3CSK4 first
Method in brief: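 Using IL-1a HTRF as read-out, the screen measured release from RAW264.7 cells after 48h siRNA knockdown (100 nM), 5 h Pam3CSK4 priming and 24 h cytosolic LipidA. Values were expressed relative to negative-control wells as robust z-scores.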

Row | Sequence | z-score
1 | GGAAACCUGGCAUAACUUUTT against Pax9 | inactive: 1.82
2 | GGCUUUGCUCCUGAUAAACTT against Vnn3 | inactive: -1.42
3 | GGCCAUCGAGGUGAUGUACTT against Tpst2 | inactive: -0.993
4 | GGUACCAGGGAGUGACAUUTT against Itgae | inactive: -0.833
5 | GGAAGAAAAAUAUGCUUUCTT against Pls3 | active: 2.7
6 | GGUCAUUAUACCAUUGGCATT against Tuba3b | inactive: 0.926
7 | GCUCAUCUUAGACGAGGCCTT against Klhl25 | inactive: 0.0702
8 | CGAGUGUAAAUCCACUUUGTT against 2810004N23Rik | inactive: 0.616
9 | GCUACGUUAAAAGCAAUAATT against Zfp711 | inactive: -0.867
10 | GGUAAAGGUGUAUUCGGGUTT against Ifngr1 | inactive: -0.238
11 | CCCUUCUAUUUGAACAUAUTT against A530032D15Rik | inactive: -0.672
12 | GCUGCUGAUAACAUCCGACTT against Golga5 | inactive: 0.554
13 | GGCAUCCAUGAAAAACUCUTT against Aqp9 | inactive: 0.641
14 | GGAACUAAAUCUUCCAUCCTT against Chit1 | inactive: -1.02
15 | GGCAAUGCCACAUUUAGAUTT against Casr | inactive: 1.87
16 | GGUACCUUAUGUUUACAAUTT against A430010J10Rik | inactive: 0.831
17 | GGUGCCUUCUGUAAACGAGTT against Foxc2 | active: 2.81
18 | GGAGAUAUUUUGCAUACAGTT against Vmn1r11 | inactive: 1.17
19 | GGCAACAGUGAAAGAUGAATT against Acnat2 | inactive: 0.0608
20 | GCCAGUUCCUAUCUGGCUUTT against 4931428L18Rik | inactive: 1.03
21 | GGGUUUGUUUCCAGGACAATT against E130308A19Rik | inactive: 0.334
22 | CGUGUGUGUUAUGAAUCAATT against Tmem161a | inactive: 0.984
23 | GGGCAAGUCCAUCCAAGACTT against Pthlh | inactive: -0.22

Another view of some results above.
Row,Sequence,z-score
8,CGAGUGUAAAUCCACUUUGTT against 2810004N23Rik,inactive: 0.616
9,GCUACGUUAAAAGCAAUAATT against Zfp711,inactive: -0.867
10,GGUAAAGGUGUAUUCGGGUTT against Ifngr1,inactive: -0.238
11,CCCUUCUAUUUGAACAUAUTT against A530032D15Rik,inactive: -0.672
12,GCUGCUGAUAACAUCCGACTT against Golga5,inactive: 0.554
13,GGCAUCCAUGAAAAACUCUTT against Aqp9,inactive: 0.641

The list goes on.

Row | Sequence | z-score
24 | CCAGAGGUCUCUAUUAAGATT against Cad | inactive: -0.0939
25 | GCCAUCAUCUGGGUAGUGUTT against Olfr1494 | inactive: 0.459
26 | GCUCUCAUCAGACUUCGAGTT against Zfp202 | inactive: 0.0887
27 | GGCUUCUAUGUCAUAGGAATT against Olfr351 | inactive: 0.75
28 | CGUGAAAUAGAUGAUACCUTT against Cdc5l | inactive: 0.625
29 | GGGUCAUGUAUAGUUUGUGTT against Dnajc8 | inactive: -0.0942
30 | GGGUACACCUUGCCGAUGUTT against Tmtc3 | inactive: 0.453
31 | GGAACGAACUCAUUAAAACTT against Abhd3 | inactive: -0.736
32 | GGUUGAAUAUUGAAUGGAATT against Ttc39b | inactive: -0.599
33 | GGAUUCCUGCUUAUCAAAUTT against Nutm1 | inactive: 0.221
34 | GCUAGUCAGAAGAAGUACUTT against Actrt2 | inactive: -0.402
35 | GCUCAAUUCGGACAACAAGTT against Smad7 | inactive: -0.594
36 | GGUCACCUUAUAAUUGCCCTT against Btd | active: -2.83
37 | GGUUUCAUGUUCUGAAACUTT against Gprasp1 | inactive: 0.481
38 | GGACACCAGUACCUGAAACTT against Gm20735 | inactive: -1.62
39 | CGGAGAAGUGACGUAUUCUTT against Pcdhga4 | inactive: -0.635
40 | CCAGCAUCUACUGUCUGACTT against Sstr1 | active: 4.2
41 | GCAGAGUAUUUGAUUCUUATT against Edc4 | inactive: 0.414
42 | GGAAAAGGCCAUGAAUAUATT against Mmel1 | inactive: 0.176
43 | GGAACAGAGACGAUACUCUTT against Fmr1nb | inactive: -0.429
44 | GGUCUCCUAUAGCACACAGTT against Itgb4 | inactive: -1.08
45 | GGACAUGAACCUCUUCAAATT against Fads2 | inactive: 0.632
46 | CCAACUUCAUAAGAUGUACTT against Commd3 | inactive: 0.596

Row | Sequence | z-score
47 | GCUAUGUGAAAGGAACCGATT against Prim2 | inactive: -0.63
48 | GGUUUUGUUGUGAGUGUUUTT against Eif1b | inactive: 0.242
49 | GGAAAAACCGUCCAGAUCCTT against Uck2 | inactive: -1.06
50 | GGAGCUCUCGAAGGAUUGUTT against Eda2r | inactive: -0.768
51 | GGAUCUUCGUAGAAUGACATT against Tmem178b | inactive: 0.283
52 | CCUGUGUGUGAAUCUCGUUTT against C1qb | inactive: 1.11
53 | GCAUAACAAAGAGGUUGAATT against Polr3a | inactive: 0.969
54 | GGAUUCUGUGCUUUCCUGGTT against Pomt2 | inactive: -0.77
55 | CCUGAUCCCGGUGUAUCAUTT against Mrpl38 | inactive: -1.01
56 | CCAGAUGAAUGUAACACGCTT against Lipi | inactive: 0.474
57 | GGAUAAGGCCAUCAAGAAGTT against Rps26 | inactive: -0.396
58 | GGAUGAACCACCACAAUUGTT against Olfr1233 | inactive: -1.16
59 | GGGAGAAGAUAUGUUUUUATT against Sc5d | inactive: -0.264
60 | GCUCAUGCCAAGGUACGAUTT against Ints1 | inactive: -0.137
61 | GGGACAAGUGGUUGAAACCTT against Prmt8 | active: -2.01
62 | CGCGGAGUUUCGAAGUGUCTT against Drd4 | active: 3.64
63 | GGUUGCCUCUUAAAUGUUGTT against Nyx | inactive: -0.775
64 | GACUAUCCUACUUACUAUATT against Tmem53 | inactive: 0.367
65 | GGACCUAUACAAGGGAGGUTT against Il1f10 | inactive: 1.17
66 | GGGCCCUUGACCUACCAUUTT against D830044D21Rik | inactive: -0.11
67 | CCAUACUGGCAUACCUUGCTT against Mrgprb8 | inactive: 0.127
68 | GGUACUUUUAUCUUAGCUATT against Paral1 | inactive: 0.0889
